Assay results from PMC10604416.
No constants are given. Whether binding was seen depends on the method and setting. In cells and extracts the contact can be indirect. Some entries that bind do so weakly or less than the wild type.

Molecular target: T1, NRP1-hFc (UniProt O14786)
T1 sequence: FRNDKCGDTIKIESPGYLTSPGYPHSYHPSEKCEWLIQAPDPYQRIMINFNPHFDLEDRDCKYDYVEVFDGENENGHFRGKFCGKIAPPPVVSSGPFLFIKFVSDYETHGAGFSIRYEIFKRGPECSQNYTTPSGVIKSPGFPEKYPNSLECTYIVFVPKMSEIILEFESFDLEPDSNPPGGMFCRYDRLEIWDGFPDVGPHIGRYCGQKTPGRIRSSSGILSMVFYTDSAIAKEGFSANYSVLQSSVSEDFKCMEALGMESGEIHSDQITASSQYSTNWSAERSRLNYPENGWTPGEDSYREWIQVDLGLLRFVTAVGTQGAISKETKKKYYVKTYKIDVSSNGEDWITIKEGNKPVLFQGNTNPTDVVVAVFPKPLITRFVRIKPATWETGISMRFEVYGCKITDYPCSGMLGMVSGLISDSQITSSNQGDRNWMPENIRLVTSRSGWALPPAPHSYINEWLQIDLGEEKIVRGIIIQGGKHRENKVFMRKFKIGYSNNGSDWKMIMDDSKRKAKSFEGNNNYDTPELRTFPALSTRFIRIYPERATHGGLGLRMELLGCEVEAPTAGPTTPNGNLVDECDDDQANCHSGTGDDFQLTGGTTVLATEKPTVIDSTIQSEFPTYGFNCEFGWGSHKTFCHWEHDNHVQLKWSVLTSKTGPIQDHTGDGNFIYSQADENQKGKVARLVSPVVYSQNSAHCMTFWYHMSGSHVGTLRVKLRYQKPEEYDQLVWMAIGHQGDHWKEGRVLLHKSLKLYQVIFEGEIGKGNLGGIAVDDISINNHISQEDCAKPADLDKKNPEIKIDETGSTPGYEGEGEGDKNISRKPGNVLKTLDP
Experiment: pull-down; only the target purified

Substance: EGFR (endogenous, HepG2) (from UniProt P00533 25-1210) (receptor)
- binding: binds
